Laboratory results: article PMC4454333
No constants are given. Whether binding was seen depends on the method and setting. Binding seen in cells or lysates may run through a third protein. Some binding calls cover weakened binding; strength is not graded here. For part of these data: Sequences can lack the tags named with a protein.

Protein sequences, listed by entry. Tags and fused reporters are not part of them.
UniProt Q9Y508: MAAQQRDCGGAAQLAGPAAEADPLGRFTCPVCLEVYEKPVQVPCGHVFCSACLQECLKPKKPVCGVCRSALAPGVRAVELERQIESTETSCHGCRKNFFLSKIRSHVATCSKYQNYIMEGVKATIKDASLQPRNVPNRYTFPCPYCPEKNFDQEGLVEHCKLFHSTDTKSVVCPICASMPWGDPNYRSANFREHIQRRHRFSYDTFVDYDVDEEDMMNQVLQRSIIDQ

What was measured:
[1] = molecular target: T1, GST-A20 (UniProt P21580); test: pull-down; GST-A20 or GST fusion proteins with lysates of HEK293 cells overexpressing FLAG-RNF114 or FLAG-A20; only the target purified
T1 sequence: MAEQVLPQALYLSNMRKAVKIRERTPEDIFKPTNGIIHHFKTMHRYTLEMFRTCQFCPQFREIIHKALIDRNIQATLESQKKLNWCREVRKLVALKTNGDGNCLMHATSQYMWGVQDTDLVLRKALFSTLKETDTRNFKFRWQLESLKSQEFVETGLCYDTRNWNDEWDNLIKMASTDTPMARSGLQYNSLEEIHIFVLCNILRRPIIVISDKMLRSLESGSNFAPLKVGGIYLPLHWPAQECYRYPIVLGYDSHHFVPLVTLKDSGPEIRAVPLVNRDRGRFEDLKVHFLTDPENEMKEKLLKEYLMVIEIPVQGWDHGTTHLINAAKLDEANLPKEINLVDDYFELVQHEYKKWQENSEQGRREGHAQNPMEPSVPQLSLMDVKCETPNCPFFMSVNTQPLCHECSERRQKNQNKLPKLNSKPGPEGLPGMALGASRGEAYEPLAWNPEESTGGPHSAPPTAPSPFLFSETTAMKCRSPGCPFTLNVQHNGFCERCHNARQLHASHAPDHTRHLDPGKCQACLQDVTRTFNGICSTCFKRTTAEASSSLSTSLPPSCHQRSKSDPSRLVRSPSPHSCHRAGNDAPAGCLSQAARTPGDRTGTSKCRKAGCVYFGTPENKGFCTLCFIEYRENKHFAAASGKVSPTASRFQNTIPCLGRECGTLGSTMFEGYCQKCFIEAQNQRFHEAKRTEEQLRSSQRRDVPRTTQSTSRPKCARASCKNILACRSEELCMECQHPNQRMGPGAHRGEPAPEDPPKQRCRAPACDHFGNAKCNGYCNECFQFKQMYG

[2] = molecular target: T2, A20, endogenous in Jurkat T cells (human (endogenous in Jurkat)) (UniProt P21580); test: co-IP; endogenous proteins of Jurkat T cells; anti-A20 or anti-RNF114 antibodies cross-linked to Protein-G; lysis in 1% Igepal CA-630 buffer; unstimulated or stimulated with TNFα or CD3/CD28 antibodies
T2 sequence: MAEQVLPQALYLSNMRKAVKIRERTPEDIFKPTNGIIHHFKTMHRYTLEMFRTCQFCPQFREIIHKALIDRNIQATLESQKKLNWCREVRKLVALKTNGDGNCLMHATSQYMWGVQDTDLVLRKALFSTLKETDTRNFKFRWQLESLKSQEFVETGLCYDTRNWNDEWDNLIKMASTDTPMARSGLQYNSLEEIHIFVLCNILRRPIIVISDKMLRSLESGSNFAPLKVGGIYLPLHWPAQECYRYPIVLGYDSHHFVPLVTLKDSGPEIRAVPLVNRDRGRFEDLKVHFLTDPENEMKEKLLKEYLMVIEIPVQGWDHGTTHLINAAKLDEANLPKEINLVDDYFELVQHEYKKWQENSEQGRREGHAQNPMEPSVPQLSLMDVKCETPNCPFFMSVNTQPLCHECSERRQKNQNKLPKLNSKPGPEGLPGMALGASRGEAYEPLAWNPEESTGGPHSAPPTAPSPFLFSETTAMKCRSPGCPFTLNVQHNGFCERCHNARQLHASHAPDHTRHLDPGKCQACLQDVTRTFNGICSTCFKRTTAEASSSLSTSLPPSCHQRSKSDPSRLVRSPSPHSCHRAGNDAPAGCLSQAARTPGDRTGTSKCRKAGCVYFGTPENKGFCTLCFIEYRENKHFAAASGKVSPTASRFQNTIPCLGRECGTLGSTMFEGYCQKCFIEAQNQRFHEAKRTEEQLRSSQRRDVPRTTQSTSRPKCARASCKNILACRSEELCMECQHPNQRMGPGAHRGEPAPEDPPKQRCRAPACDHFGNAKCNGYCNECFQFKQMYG

[3] = molecular target: AU5-RNF114 (human) (UniProt Q9Y508); test: co-IP; HEK293 cells transfected with forms of FLAG-A20 and AU5-RNF114; anti-AU5 immunoprecipitation (Protein-G cross-linked with antibody); lysis in 1% Igepal CA-630 buffer; with or without TNFα for 20 min

With FLAG-RNF114 (from UniProt Q9Y508 1-228) the binding [1] was “binds”.

“RNF114, endogenous in Jurkat T cells (from UniProt Q9Y508 1-228)” was tested, and the binding [2] was “binds”.

B1: FLAG-A20 C-terminal (390-790) (domain or fragment, UniProt P21580 390-790)
chain: PNCPFFMSVNTQPLCHECSERRQKNQNKLPKLNSKPGPEGLPGMALGASRGEAYEPLAWNPEESTGGPHSAPPTAPSPFLFSETTAMKCRSPGCPFTLNVQHNGFCERCHNARQLHASHAPDHTRHLDPGKCQACLQDVTRTFNGICSTCFKRTTAEASSSLSTSLPPSCHQRSKSDPSRLVRSPSPHSCHRAGNDAPAGCLSQAARTPGDRTGTSKCRKAGCVYFGTPENKGFCTLCFIEYRENKHFAAASGKVSPTASRFQNTIPCLGRECGTLGSTMFEGYCQKCFIEAQNQRFHEAKRTEEQLRSSQRRDVPRTTQSTSRPKCARASCKNILACRSEELCMECQHPNQRMGPGAHRGEPAPEDPPKQRCRAPACDHFGNAKCNGYCNECFQFKQMYG
For B1, the binding [3] was “binds”.
